Measured values reported in article doi:10.1101/2025.09.22.677724.
Residue numbers refer to the chain shown, from its start. In names and notes the source's numbering stands. No constants are given. Whether binding was seen depends on the method and setting. Some entries that bind do so weakly or less than the wild type. Each block holds one binder with its values, some of them ahead of it.

The chains behind the UniProt entries cited, without tags or fusion partners.
UniProt Q10428: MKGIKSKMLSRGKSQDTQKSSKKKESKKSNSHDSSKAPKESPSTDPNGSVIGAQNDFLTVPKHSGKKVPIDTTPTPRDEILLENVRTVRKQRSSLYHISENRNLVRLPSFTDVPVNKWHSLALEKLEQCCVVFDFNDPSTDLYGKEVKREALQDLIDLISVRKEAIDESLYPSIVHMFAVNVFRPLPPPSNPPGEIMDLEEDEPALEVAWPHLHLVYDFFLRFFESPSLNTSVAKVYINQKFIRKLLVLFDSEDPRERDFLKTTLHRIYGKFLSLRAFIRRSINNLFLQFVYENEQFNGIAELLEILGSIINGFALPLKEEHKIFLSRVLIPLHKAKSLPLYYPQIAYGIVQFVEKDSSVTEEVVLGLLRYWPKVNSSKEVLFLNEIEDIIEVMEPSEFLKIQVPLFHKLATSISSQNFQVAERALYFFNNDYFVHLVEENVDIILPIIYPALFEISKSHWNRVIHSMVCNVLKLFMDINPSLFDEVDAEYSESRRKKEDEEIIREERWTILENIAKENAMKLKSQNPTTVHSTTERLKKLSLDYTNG

Legend:
[1] = target: T1, Slp1 (Cdc20 homolog), Gal4 DNA-binding domain bait (S. pombe) (UniProt P78972); assay: two-hybrid
T1 sequence: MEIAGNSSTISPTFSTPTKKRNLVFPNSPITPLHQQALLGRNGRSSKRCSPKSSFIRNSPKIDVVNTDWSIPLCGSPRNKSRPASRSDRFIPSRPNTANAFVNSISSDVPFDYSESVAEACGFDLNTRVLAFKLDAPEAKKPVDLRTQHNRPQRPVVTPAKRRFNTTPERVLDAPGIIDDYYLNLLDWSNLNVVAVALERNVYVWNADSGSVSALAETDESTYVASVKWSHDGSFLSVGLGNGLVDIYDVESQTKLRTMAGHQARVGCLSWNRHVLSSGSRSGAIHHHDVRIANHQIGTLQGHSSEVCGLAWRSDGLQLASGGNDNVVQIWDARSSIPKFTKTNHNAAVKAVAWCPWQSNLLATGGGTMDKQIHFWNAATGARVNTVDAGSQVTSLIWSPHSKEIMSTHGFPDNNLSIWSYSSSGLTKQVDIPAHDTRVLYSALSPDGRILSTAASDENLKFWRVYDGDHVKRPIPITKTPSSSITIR

[2] = target: Par1 (PP2A regulatory B56 subunit), Gal4 DNA-binding domain bait (S. pombe) (UniProt Q10428); assay: two-hybrid

binding [2]: no binding
B3: Sgo1-N29I, Gal4 activation domain prey (protein, UniProt Q9P7A0 1-319)
chain: MNFQFINSNINNEDKLPMESLKKKFLKQIREIIKINTQLSIKIRESENEIQDLIQENFTLKSYLVKLEARFRNQSQTEDLLKNFFPEIQTIHKKISQVQSLLKIIEKKCSSDFLEANVKSQFTTCENKDSKEDYQILHNKRLEYVSFNDELKSLETGQPLYCFQDFQKKVHGPPALSEKPGKCILKDKTNAHVNKIPQDEVNYSLPQKNITIFSKELKENEFESINEGETEEEKAKTSNVCVCIPCKSAEQITDLKGQATGDSSPCDFEESQPRINGREKLRRSVKVINYAIPSLRTKLRRDFDLPSDRKRKRHPRGKA

binding [1]: binds
B5: Sgo1-T189E (amino acid 81-211), Gal4 activation domain prey (domain or fragment, UniProt Q9P7A0 81-211)
chain: LKNFFPEIQTIHKKISQVQSLLKIIEKKCSSDFLEANVKSQFTTCENKDSKEDYQILHNKRLEYVSFNDELKSLETGQPLYCFQDFQKKVHGPPALSEKPGKCILKDKENAHVNKIPQDEVNYSLPQKNIT

binding [1]: binds
B6: Sgo1-T189A (amino acid 81-211), Gal4 activation domain prey (domain or fragment, UniProt Q9P7A0 81-211)
chain: B5 chain with E109A

More lines, now with the values behind:

B1: Sgo1 (shugoshin), Gal4 activation domain prey (protein, UniProt Q9P7A0 1-319)
chain: B3 chain with I29N
binding [1]: binds | binding [2]: binds

B2: Sgo1-L185A, Gal4 activation domain prey (protein, UniProt Q9P7A0 1-319)
chain: B3 chain with I29N, L185A
binding [1]: binds

B4: Sgo1 (amino acid 81-211), Gal4 activation domain prey (domain or fragment, UniProt Q9P7A0 81-211)
chain: B5 chain with E109T
binding [1]: binds
